Some of the results follow. Further columns of the screen follow, without active or inactive calls. The list favours compounds with an active or inconclusive main result. The note in brackets gives the kind of curve behind each potency; many fits are weak.
Experiment: qHTS Assay for Lipid Storage Modulators in Drosophila S3 Cells;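 on cell number change: cells counted by Cell Tracker Red CMTPX staining in the red channel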
Conditions: BODIPY lipid droplet fluorescence, 18-24 h; for cell number change: measured here: cell count max response, cells fed with added oleic acid
Summary of the method: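 Laser-scanning cytometry quantifies lipid droplet accumulation (500–530 nm total intensity; droplet/cell object ratio) in oleic acid-fed (400 uM added) Drosophila S3 cells treated with a concentration series. 20 uM Triacsin C defined 100% inhibition.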

[1] = measured here: cell number channel AC50, cells fed with added oleic acid
[2] = measured here: lipid fluorescence (Fed channel) AC50, cells fed with added oleic acid

| SMILES | cell number change [%] | AC50 [1] | AC50 [2] |
| --- | --- | --- | --- |
| O=C(N/N=C/c1c(O)n(-c2ccccc2Cl)c(=O)c2ccccc12)c1cccnc1 | 43.7 | 29.1 µM [rising, single point] | 23.1 µM [rising, single point] |
| O=c1cc(-c2ccccc2Cl)oc2c(NS(=O)(=O)c3cccc4nsnc34)ccc(O)c12 | 12.7 | – | 0.411 µM [rising, full curve] |
| CCOC(=O)Cc1csc(NC(=O)COc2ccc3c(C)cc(=O)oc3c2)n1 | -16.8 | – | 2.31 µM [falling, partial curve, poor fit] |
| C#Cc1cccc(NC(=O)Cc2cccs2)c1 | 36.1 | 18.4 µM [rising, single point] | – |
| COc1ccc(-n2c(SCC(=O)Nc3cc(C)on3)nc3c([nH]c4ccccc43)c2=O)cc1OC | -10.8 | – | 4.61 µM [rising, partial curve, poor fit] |
| COc1ccc(/C=N/NC(=O)c2ccn[nH]2)cc1Cn1cc([N+](=O)[O-])cn1 | 24.4 | – | 10.3 µM [rising, partial curve] |
| Cc1ccc2nc3n(c2c1)CCCN3 | 19.2 | – | 13 µM [rising, partial curve, poor fit] |
| CCn1cc(C(=O)OCC(=O)NCc2ccc3c(c2)OCO3)c(=O)c2ccc(C)nc21 | -4.71 | – | 0.116 µM [rising, full curve, poor fit] |
| Nc1ccc(C(=O)N/N=C/c2cn(Cc3ccccc3)c3ccccc23)cc1 | -31.2 | 14.6 µM [falling, single point] | – |
| Cc1ccc(-n2c(C3CC3c3ccc(Cl)cc3)n[nH]c2=S)cc1 (centres undefined) | -31.7 | 0.259 µM [rising, full curve, poor fit] | – |
| Cc1cccc(C)c1NC(=O)COC(=O)c1c(C)nn(-c2ccccc2)c1C | -5.74 | 1.64 µM [falling, partial curve, poor fit] | 29.1 µM [falling, single point] |
| O=C(NCCC1=CCCCC1)C1CCN(C(=O)Cc2ccccc2)CC1 | -40.3 | 4.11 µM [falling, partial curve] | – |
| CC(C)CC(=O)N1CCN(C(=O)CCC2CCCC2)CC1 | 4.48 | – | 0.82 µM [falling, partial curve, poor fit] |
| COc1cc(/C=C2\SC(=S)N(CCC(=O)NC3CCCC3)C2=O)cc(OC)c1OC | -23.8 | – | 6.51 µM [rising, single point] |
| Clc1ccc(-c2nc3cnccn3c2Nc2ccc3c(c2)OCO3)cc1 | – | 0.291 µM [rising, partial curve, poor fit] | – |
| Cc1cccc(-c2nc(CS(=O)CC(=O)NCC3CCCO3)c(C)o2)c1 (centres undefined) | 8.97 | – | – |
| CC(C)C[C@H](NC(=O)c1nc[nH]c1C(=O)N(C)Cc1ccccc1)C(=O)OCc1ccccc1 | -10.1 | – | – |
| O=C(NCc1ccc(Cl)cc1)C1CCCN(S(=O)(=O)c2cnc[nH]2)C1 (centres undefined) | 30.6 | 6.51 µM [rising, partial curve, poor fit] | 6.51 µM [rising, partial curve, poor fit] |
| Cc1cc(C)c2nc(N(CCN(C)C)C(=O)c3ccc4ccccc4c3)sc2c1 | 11 | – | 16.4 µM [rising, partial curve] |
| CNC(=O)NC(=O)C(C)OC(=O)CCCc1nc2ccccc2s1 (centres undefined) | -20.6 | – | – |

| SMILES | cell number change [%] | AC50 [1] | AC50 [2] |
| --- | --- | --- | --- |
| O=S(=O)(NCC1CCCO1)c1cnc(Cl)c(Cl)c1 (centres undefined) | -18.8 | 0.58 µM [falling, full curve, poor fit] | – |
| c1ccc2[nH]c(SCCN3CCOCC3)nc2c1 | 14.1 | – | – |
| C=CCn1c(SCC(=O)NC(=O)NCc2ccco2)nc2sc(C)c(C)c2c1=O | -69 | 23.1 µM [falling, partial curve] | 29.1 µM [falling, single point] |
| COc1ccc(N2CCN(C(=O)CCCn3c(=S)[nH]c4cc5c(cc4c3=O)OCO5)CC2)cc1 | -15.1 | 0.326 µM [rising, partial curve] | 1.64 µM [rising, partial curve] |
| COc1cc(C(=O)NC(C)c2cc(C)ccc2C)ccc1OCC(=O)N1CCOCC1 (centres undefined) | 11.7 | – | 29.1 µM [rising, single point] |
| Cc1ccc(NC(=S)NNC(=O)c2ccc(N3CCOCC3)c([N+](=O)[O-])c2)cc1C | -8.48 | – | – |
| CC(C)NC(=O)CSc1nc2ccccc2n1CC(=O)N1CCc2ccccc21 | 80.1 | 6.51 µM [rising, partial curve, poor fit] | 0.461 µM [rising, partial curve] |
| CCc1cc2cccc(C)c2nc1SCC(=O)NC1CCCC1 | 3.04 | – | – |
| Cc1ccc(O)c(NC(=O)Cc2ccc3ccccc3c2)c1 | -10.7 | – | – |
| O=C(COC(=O)C1CC2CCCC(C1)C2=O)Nc1cccc(F)c1 (centres undefined) | -0.497 | – | 0.146 µM [falling, full curve, poor fit] |
| Cn1ccsc1=NC(=O)c1ccccc1F | 3.64 | 0.00461 µM [falling, full curve, poor fit] | – |
| COc1ccc(NC(=O)c2cc(C)nc3ccccc23)c(OC)c1 | -65.2 | – | – |
| Cc1occc1-c1nnc(SCC(=O)Nc2ccccc2)n1CCc1ccccc1 | – | 0.146 µM [rising, full curve, poor fit] | 0.13 µM [rising, full curve, poor fit] |
| Cc1ccccc1CS(=O)(=O)Cc1ccc(C(=O)NCCCN2CCOCC2)o1 | -67.8 | 1.64 µM [falling, partial curve] | – |
| Cc1nn(C)cc1/C=C1\SC(=S)NC1=O | – | – | 0.291 µM [rising, partial curve, poor fit] |
| O=C(CN(C(=O)C1CSC(=O)C1)c1ccc(F)cc1)NCc1ccc2c(c1)OCO2 (centres undefined) | 8.33 | – | – |
| COc1ccc(CNC(=O)CNC(=O)c2ccc(C(C)(C)C)cc2)cc1OC | -2.78 | – | 6.51 µM [falling, single point] |
| O=C(CCNC(=O)c1ccc(Br)cc1)Nc1ccc(S(=O)(=O)N2CCCCC2)cc1 | -0.427 | – | 4.61 µM [falling, single point] |
| CC(c1ccccc1)N1CCn2c(nc3cc(NC(=O)NC4CCCCC4)ccc32)C1 (centres undefined) | 1.85 | 1.03 µM [rising, partial curve] | 6.51 µM [rising, single point] |
| CC(=O)Nc1nnc(SCC(=O)N2CCc3ccccc32)s1 | 5.71 | – | – |

Grouped by structure, the compounds so far containing a thiophene ring, fused or not (2)

| SMILES | cell number change [%] | AC50 [1] | AC50 [2] |
| --- | --- | --- | --- |
| C#Cc1cccc(NC(=O)Cc2cccs2)c1 | 36.1 | 18.4 µM [rising, single point] | – |
| C=CCn1c(SCC(=O)NC(=O)NCc2ccco2)nc2sc(C)c(C)c2c1=O | -69 | 23.1 µM [falling, partial curve] | 29.1 µM [falling, single point] |

(further entries)

| SMILES | cell number change [%] | AC50 [1] | AC50 [2] |
| --- | --- | --- | --- |
| FC(F)(F)c1ccc(NC(=S)NC2CCCCC2)cc1 | -52.5 | 1.64 µM [falling, partial curve] | – |
| O=C(Cc1ccccc1)Nc1ccc(NC(=O)c2ccccc2)c(Cl)c1 | -14.4 | – | – |
| Cc1cc(/C=C2\SC(=S)NC2=O)c(C)n1C | -3.07 | – | 25.9 µM [rising, partial curve, poor fit] |
| Cc1cccc(C(=O)Oc2cccc3c(O)cccc23)c1 | -48.1 | 18.4 µM [falling, single point] | 4.11 µM [rising, partial curve, poor fit] |
| Cn1c(=O)c2c(nc(Br)n2CCc2ccccc2)n(C)c1=O | -19.4 | – | – |
| CCCCCCN(C(=O)CCCCCN1C(=O)NC(c2ccc(-c3ccccc3)cc2)C(C(=O)OCc2ccccc2)=C1C)C(C(=O)NCCCC)C1CCCCC1 (centres undefined) | -1.91 | – | 3.66 µM [falling, single point] |
| CC(C(=O)NC1CCS(=O)(=O)C1)N1C(=O)/C(=C/c2ccc(Cl)cc2)SC1=S (centres undefined) | – | – | 18.4 µM [falling, partial curve] |
| N#Cc1c(F)cccc1NCc1cccs1 | 27.8 | 3.26 µM [rising, full curve, poor fit] | – |
| CN(Cc1ccccc1)S(=O)(=O)c1ccc(Cl)nc1 | 0.983 | – | – |
| CC1CCN(c2cc(N3CCOCC3)c(F)cc2[N+](=O)[O-])CC1 | -11.8 | – | 9.2 µM [falling, partial curve, poor fit] |
| CCCCCCC(C)n1[nH]c(=O)cc1N (centres undefined) | -14.1 | 1.3 µM [falling, full curve, poor fit] | 0.058 µM [falling, full curve, poor fit] |
| Cc1cc(S(=O)(=O)N2CCOCC2)ccc1OCC(=O)N1CCOCC1 | 25.6 | 0.184 µM [rising, full curve, poor fit] | 29.1 µM [falling, single point] |
| COc1ccc(CCn2cnc(=O)c(C#N)c2C)cc1OC | 41.8 | 23.1 µM [rising, single point] | – |
| CCOC(=O)CN(C(=O)CSc1nnc2c(n1)[nH]c1c(C)cc(C)cc12)c1ccccc1 | -8.65 | 0.13 µM [falling, full curve, poor fit] | 2.06 µM [falling, partial curve] |
| Cc1ccc(C)c(S(=O)(=O)N2CCN(C(=O)c3cncc(Br)c3)CC2)c1 | 16.2 | – | 29.1 µM [rising, single point] |
| C/C(=C\c1ccccc1)C1Nc2cccc3cccc(c23)N1 | -5.78 | – | 16.4 µM [rising, single point] |
| Cc1cc(C(=O)NCc2cc(C(=O)O)co2)co1 | -17.4 | – | – |
| C[C@@H](NC(=O)Cn1ccc(NC(=O)OCc2ccccc2)nc1=O)c1cccc2ccccc12 | 6.81 | – | 0.58 µM [falling, single point] |
| OC(CNCc1cccs1)c1ccccc1 (centres undefined) | -4.27 | 0.146 µM [falling, full curve, poor fit] | 0.651 µM [falling, full curve, poor fit] |
| O=C(Cc1ccccc1)NNS(=O)(=O)c1ccc([N+](=O)[O-])cc1 | – | – | 13 µM [falling, single point] |

From PubChem BioAssay AID2685 (National Center for Advancing Translational Sciences (NCATS), 2010)
